# Data as given in PubChem BioAssay AID743121 (NCATS, 2013)
# Purpose: 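Knock-downs that sensitise breast cancer cells to camptothecin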 (primary screen)
# System: MDA-MB-231 cells, a human breast cancer line
# Reagents: single siRNA against human genes, 20 nM siRNA (0.8 pmol per well)
# Time to read-out: 120 h (drug added 48 h after transfection, read 72 h later)
# Conditions: camptothecin 20 nM (about EC30) for 72 h; vehicle 0.1% DMSO in parallel plates
# Measurement: 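CellTiter-Glo ATP signal, scaled to control siRNA as percent viability; sensitisation given as log2 of untreated divided by camptothecin-treated viability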
# Direction: log2 vehicle/camptothecin viability: higher = stronger sensitisation to camptothecin; viability with camptothecin and viability without drug: higher = more viable cells
# Hit rule: 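Active genes have an RSA gene-level p-value below 0.001, computed from the ratios of their separate siRNAs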
# Here is one part, drawn at random, of about 26,000 reagents tested. Over the whole deposit, 167 (0.63%) are marked active. 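Calls are per gene from RSA p-values that are not deposited; an individual active-marked siRNA can sensitise only weakly.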 Entries without a mark were called inactive. The numbers tell different reagents against one gene apart. Reagent sequences are not shown.
Gene,siRNA no.,log2 vehicle/camptothecin viability,viability with camptothecin (% of control),viability without drug (% of control)
FGF10,1,-0.444,68.3,50.2
FGF10,2,0.0879,76.5,81.3
FGF10,3,-0.627,66.3,43
RTL9,1,-0.341,54.1,42.7
RTL9,2,-0.188,43.8,38.4
RTL9,3,-0.137,115,105
RTL9,4,0.0486,62.5,64.6
SGK1,1,0.0228,87.6,89
SGK1,2,-0.257,127,106
SGK1,3,0.207,86.4,99.7
SGK1,4,-0.271,77.2,64
CAPN11,1,-0.0164,43,42.5
CAPN11,2,-0.297,21.6,17.6
CAPN11,3,-0.00747,54,53.7
CAPN11,4,-0.267,103,85.7
IFNA5,1,0.0435,69.8,72
IFNA5,2,-0.771,49,28.7
IFNA5,3,-0.113,98.4,91
IFNA5,4,-0.00816,91.6,91.1
CBLL1,1,-0.612,94.9,62.1
CBLL1,2,-0.318,36.6,29.4
CBLL1,3,-0.174,72.3,64.1
GAST,1,-0.0842,74.7,70.4
GAST,2,0.13,64.9,71
GAST,3,0.365,58.1,74.8
GAST,4,-0.38,2.34,1.8
ITPA,1,-0.176,60,53.1
ITPA,2,-0.195,86.5,75.6
ITPA,3,-0.275,98,81
ITPA,4,-0.509,44.1,31
FLT3LG,1,-0.167,60.2,53.6
FLT3LG,2,0.523,28.9,41.5
FLT3LG,3,0.262,33.7,40.4
FLT3LG,4,-0.542,68.3,46.9
CATSPER2,1,0.229,87.2,102
CATSPER2,2,-0.387,101,77.2
CATSPER2,3,0.181,94.7,107
CATSPER2,4,-0.172,116,103
CATSPER2,5,-0.168,106,94.4
CATSPER2,6,0.221,23.4,27.2
MED30,1,0.00883,74,74.5
MED30,2,0.0517,98.3,102
MED30,3,-0.219,69.6,59.8
MED30,4,0.28,61.6,74.8
TAS2R60,1,0.0507,43.4,44.9
TAS2R60,2,-0.14,45.7,41.5
TAS2R60,3,0.172,51,57.4
TAS2R60,4,-0.0244,37.3,36.7
HOMER3,1,-0.392,104,79.6
HOMER3,2,0.0348,52.7,54
HOMER3,3,-0.129,77.3,70.7
PGM5,1,-0.55,98.8,67.5
PGM5,2,-0.144,105,94.9
PGM5,3,-0.21,89.5,77.4
PGM5,4,0.234,57.8,68
KDM5A,1,-0.263,92,76.7
KDM5A,2,-0.271,76.5,63.4
KDM5A,3,0.09,51.9,55.2
APAF1,1,-0.113,70.4,65.1
APAF1,2,-0.215,121,104
APAF1,3,-0.281,134,110
APAF1,4,-0.378,96.6,74.3
VTI1B,1,-0.247,39.2,33.1
VTI1B,2,-0.284,74.9,61.5
VTI1B,3,-0.0707,95.7,91.1
CRLF2,1,-0.345,55.3,43.5
CRLF2,2,-0.033,73.4,71.7
CRLF2,3,-0.343,71.8,56.6
CRLF2,4,-0.104,97.2,90.5

Not a retest: entries from further up.
Gene,siRNA no.,log2 vehicle/camptothecin viability,viability with camptothecin (% of control),viability without drug (% of control)
FGF10,2,0.0879,76.5,81.3
FGF10,3,-0.627,66.3,43
RTL9,1,-0.341,54.1,42.7
RTL9,2,-0.188,43.8,38.4
RTL9,3,-0.137,115,105
RTL9,4,0.0486,62.5,64.6
